Assay results published in article PMC10043188.
Positions count from the first letter of the chain named. Read-outs that look alike come from different tables or passages of the source. No constants are given. Whether binding was seen depends on the method and setting. Binding seen in cells or lysates may run through a third protein. Some entries that bind do so weakly or less than the wild type. Tags and fused reporters may be left off the sequences shown. Blank lines part the entries; values can stand above or below the molecule they belong to.

By UniProt entry, the sequences of proteins in these tests, tags left out. Where a name states a change or a piece, a line headed by the entry shows the natural chain unless it says otherwise. Chains listed by the source or under a name are the forms on record and can include a tag or linker.
UniProt P11275: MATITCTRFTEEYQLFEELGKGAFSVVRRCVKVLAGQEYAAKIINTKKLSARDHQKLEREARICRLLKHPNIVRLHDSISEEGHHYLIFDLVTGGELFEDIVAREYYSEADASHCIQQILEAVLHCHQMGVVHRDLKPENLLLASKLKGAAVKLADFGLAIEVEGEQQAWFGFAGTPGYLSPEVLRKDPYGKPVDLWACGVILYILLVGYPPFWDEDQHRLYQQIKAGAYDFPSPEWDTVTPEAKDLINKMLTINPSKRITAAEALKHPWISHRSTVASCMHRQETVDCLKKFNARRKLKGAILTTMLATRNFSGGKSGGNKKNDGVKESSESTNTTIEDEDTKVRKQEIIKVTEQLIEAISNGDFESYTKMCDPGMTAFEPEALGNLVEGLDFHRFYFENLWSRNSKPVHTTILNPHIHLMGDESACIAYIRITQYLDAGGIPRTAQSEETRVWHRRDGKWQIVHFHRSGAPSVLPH
UniProt P08413: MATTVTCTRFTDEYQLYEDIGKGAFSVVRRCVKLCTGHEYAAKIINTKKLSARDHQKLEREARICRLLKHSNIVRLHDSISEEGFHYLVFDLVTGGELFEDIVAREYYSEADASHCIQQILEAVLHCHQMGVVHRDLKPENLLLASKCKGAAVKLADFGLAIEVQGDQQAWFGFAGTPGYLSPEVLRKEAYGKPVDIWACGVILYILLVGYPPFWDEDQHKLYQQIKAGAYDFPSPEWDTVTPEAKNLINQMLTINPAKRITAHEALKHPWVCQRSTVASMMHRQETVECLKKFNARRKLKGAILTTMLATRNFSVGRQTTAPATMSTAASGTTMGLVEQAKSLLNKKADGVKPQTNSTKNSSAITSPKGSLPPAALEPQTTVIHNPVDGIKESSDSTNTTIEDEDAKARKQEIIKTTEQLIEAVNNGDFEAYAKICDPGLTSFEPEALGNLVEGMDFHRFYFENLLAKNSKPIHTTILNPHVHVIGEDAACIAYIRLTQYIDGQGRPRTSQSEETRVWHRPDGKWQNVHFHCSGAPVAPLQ
Sarco/endoplasmic reticulum Ca2+-ATPase SERCA2A (P16615-2, form named): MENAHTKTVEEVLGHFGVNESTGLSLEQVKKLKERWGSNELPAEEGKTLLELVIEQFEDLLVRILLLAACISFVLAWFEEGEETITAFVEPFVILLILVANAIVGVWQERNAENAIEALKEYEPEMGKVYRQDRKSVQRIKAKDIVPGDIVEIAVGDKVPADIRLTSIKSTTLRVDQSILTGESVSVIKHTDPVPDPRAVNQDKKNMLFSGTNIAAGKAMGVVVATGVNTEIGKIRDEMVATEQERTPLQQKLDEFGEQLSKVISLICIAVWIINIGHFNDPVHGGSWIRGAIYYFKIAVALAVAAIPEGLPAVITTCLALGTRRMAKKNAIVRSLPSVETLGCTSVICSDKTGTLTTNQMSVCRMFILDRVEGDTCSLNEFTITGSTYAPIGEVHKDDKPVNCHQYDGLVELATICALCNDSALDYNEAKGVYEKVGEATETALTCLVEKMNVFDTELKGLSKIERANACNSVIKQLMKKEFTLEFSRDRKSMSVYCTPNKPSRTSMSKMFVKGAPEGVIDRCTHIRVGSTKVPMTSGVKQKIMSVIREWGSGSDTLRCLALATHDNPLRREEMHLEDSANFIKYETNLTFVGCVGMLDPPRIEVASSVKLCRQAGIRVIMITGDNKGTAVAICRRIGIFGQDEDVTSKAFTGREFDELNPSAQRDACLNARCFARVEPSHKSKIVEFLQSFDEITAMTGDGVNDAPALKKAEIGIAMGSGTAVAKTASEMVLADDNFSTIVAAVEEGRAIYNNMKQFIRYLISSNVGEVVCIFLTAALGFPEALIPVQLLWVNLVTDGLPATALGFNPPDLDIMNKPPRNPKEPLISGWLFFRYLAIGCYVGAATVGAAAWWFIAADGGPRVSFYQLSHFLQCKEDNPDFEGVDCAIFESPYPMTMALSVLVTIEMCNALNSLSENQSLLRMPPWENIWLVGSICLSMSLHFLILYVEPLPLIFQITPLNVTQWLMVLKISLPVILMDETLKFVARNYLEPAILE

Tests used:
Assay in all cases: co-IP; HEK293 cells co-transfected; lysis in Co-IP buffer (20 mM Tris-HCl, 3 mM EDTA, 3 mM EGTA, 150 mM NaCl, 1% Triton X-100, 1 mM DTT, pH 7.4); IP of myc-Arc with mouse anti-myc and GammaBind Sepharose beads overnight at 4°C; blot with anti-GFP and anti-myc
[1] = target: T1, Activity-regulated cytoskeleton-associated protein (Arc), wild type, myc-tagged (UniProt Q9WV31)
T1 sequence: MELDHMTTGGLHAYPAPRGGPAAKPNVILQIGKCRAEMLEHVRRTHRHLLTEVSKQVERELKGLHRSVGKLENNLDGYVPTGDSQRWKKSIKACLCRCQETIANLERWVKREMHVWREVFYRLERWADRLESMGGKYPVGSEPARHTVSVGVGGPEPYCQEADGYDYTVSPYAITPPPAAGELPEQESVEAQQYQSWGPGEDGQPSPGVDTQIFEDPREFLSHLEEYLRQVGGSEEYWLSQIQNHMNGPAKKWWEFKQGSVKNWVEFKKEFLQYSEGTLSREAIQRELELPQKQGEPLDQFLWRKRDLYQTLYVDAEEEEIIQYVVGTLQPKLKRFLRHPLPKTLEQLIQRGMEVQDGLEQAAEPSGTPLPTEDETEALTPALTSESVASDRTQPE

[2] = target: T2, Arc K268R/K269R (ArcKR), myc-tagged (UniProt Q9WV31)
T2 sequence: T1 sequence with K268R, K269R

[3] = target: T1, Activity-regulated cytoskeleton-associated protein (Arc), wild type, myc-tagged; remark: listed apart in the source
[4] = target: T2, Arc K268R/K269R (ArcKR), myc-tagged; remark: listed apart in the source

Molecule: CaMKII alpha T286D, GFP-tagged (from UniProt P11275 1-478) (enzyme)
binding [1]: binds | binding [2]: binds

Molecule: Calcium/calmodulin-dependent protein kinase II alpha, GFP-tagged (from UniProt P11275 1-478) (enzyme)
binding [1]: binds | binding [2]: binds

Molecule: CaMKII beta T287D, GFP-tagged (from UniProt P08413 1-542) (enzyme)
binding [1]: binds | binding [2]: binds

Molecule: CaMKII alpha T286A, GFP-tagged (from UniProt P11275 1-478) (enzyme)
binding [1]: binds | binding [2]: binds

B1: mVenus-Calnexin (protein, UniProt P27824 21-592)
chain: HDGHDDDVIDIEDDLDDVIEEVEDSKPDTTAPPSSPKVTYKAPVPTGEVYFADSFDRGTLSGWILSKAKKDDTDDEIAKYDGKWEVEEMKESKLPGDKGLVLMSRAKHHAISAKLNKPFLFDTKPLIVQYEVNFQNGIECGGAYVKLLSKTPELNLDQFHDKTPYTIMFGPDKCGEDYKLHFIFRHKNPKTGIYEEKHAKRPDADLKTYFTDKKTHLYTLILNPDNSFEILVDQSVVNSGNLLNDMTPPVNPSREIEDPEDRKPEDWDERPKIPDPEAVKPDDWDEDAPAKIPDEEATKPEGWLDDEPEYVPDPDAEKPEDWDEDMDGEWEAPQIANPRCESAPGCGVWQRPVIDNPNYKGKWKPPMIDNPSYQGIWKPRKIPNPDFFEDLEPFRMTPFSAIGLELWSMTSDIFFDNFIICADRRIVDDWANDGWGLKKAADGAAEPGVVGQMIEAAEERPWLWVVYILTVALPVFLVILFCCSGKKQTSGMEYKKTDAPQPDVKEEEEEKEEEKDKGDEEEEGEEKLEEKQKSDAEEDGGTVSQEEEDRKPKAEEDEILNRSPRNRKPRRE
binding [3]: binds | binding [4]: binds

Continued, values first:

binding [1]: no binding | binding [2]: no binding
Molecule: Sarco/endoplasmic reticulum Ca2+-ATPase SERCA2A (from UniProt P16615-2 1-997) (enzyme)

binding [1]: binds | binding [2]: binds
Molecule: Calcium/calmodulin-dependent protein kinase II beta, GFP-tagged (from UniProt P08413 1-542) (enzyme)
